In paper PMC5732302 one finds binding data, which are given here for one substance.

In this assay the target is T1, She1-HALO labelled with HaloTag-TMR ligand (She1-TMR) (budding yeast) (UniProt P38200).
T1 sequence (chain, TMR (HaloTag-TMR ligand) on the HaloTag): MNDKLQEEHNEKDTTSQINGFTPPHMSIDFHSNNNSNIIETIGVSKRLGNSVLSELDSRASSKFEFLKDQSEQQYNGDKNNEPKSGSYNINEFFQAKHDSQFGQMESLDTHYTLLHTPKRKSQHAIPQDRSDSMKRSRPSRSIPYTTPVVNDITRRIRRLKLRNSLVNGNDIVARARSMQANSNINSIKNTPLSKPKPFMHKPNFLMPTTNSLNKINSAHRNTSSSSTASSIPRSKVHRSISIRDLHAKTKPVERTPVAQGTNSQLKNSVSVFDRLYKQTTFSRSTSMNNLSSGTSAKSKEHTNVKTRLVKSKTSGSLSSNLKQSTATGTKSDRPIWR
Nature of the assay: microtubule recruitment assay (TIRF microscopy); undigested (+E-hook) microtubules with 40 nM She1 and 45 nM GFP–dynein331 ^∆MTBD; recruitment of the GFP protein by microtubule-bound She1; both purified.

No constants are given. Whether binding was seen depends on the method and setting. Tags and fused reporters may be left off the sequences shown.

For “GFP–dynein331 ^∆MTBD, dynein motor domain fragment lacking its MTBD (budding yeast) (domain or fragment)”, the binding entry was “no binding (tested: 40 nM She1, 45 nM dynein mutant)”.
